Results are given in words; binding and its absence hold for the method and conditions named. Some binding calls cover weakened binding; strength is not graded here.

Results on two molecules are retold here after US20180000755A1 (UNIVERSITY OF TOKYO, published 2018).

In this test the target is T1, C-terminal membrane-proximal region of CCR2.
T1 sequence (peptide): EKFRRYLSVFFRKHIT
The test can be described thus: HTRF experiment carried out in the past.

B1: FROUNT fragment consisting of the region of the 532nd to 650th amino acids (protein)
chain: SDRLTFLGKYREFHRMYGEKRFADAASLLLSLMTSRIAPRSFWMTLLTDALPLLEQKQVIFSAEQTYELMRCLEDLTSRRPVHGESDTEQLQDDDIETTKVEMLRLSLARNLARAIIRE
For B1, the binding entry is “binds”.

B2: FROUNT fragment consisting of the region of the 549th to 656th amino acids (protein)
chain: GEKRFADAASLLLSLMTSRIAPRSFWMTLLTDALPLLEQKQVIFSAEQTYELMRCLEDLTSRRPVHGESDTEQLQDDDIETTKVEMLRLSLARNLARAIIREGSLEGS
On to B2, for which the binding entry is “binds”.
